{"source": "patent US11241475B2", "about": "“Preventive and/or therapeutic agent for osteogenesis imperfecta and other diseases” (Pharma Foods International Co., Ltd., priority 2016, dated 2022)", "key": {"male Crlj:WI rats [1]": {"tested_on": "male Crlj:WI rats", "experiment": "Osteogenesis-promoting effect on primary cancellous bone (Example 4)", "format": "in vivo", "conditions": "100 mg/kg/day oral, seven days, versus control group and hGH administration group, FIG. 12"}, "[2]": {"tested_on": "parathyroid hormone (PTH)", "experiment": "Effect on parathyroid hormone concentration (Example 10)", "format": "in vivo", "conditions": "rats, single oral dose 10 mg/kg, up to 120 minutes; versus control group; FIG. 34"}, "[3]": {"tested_on": "insulin-like growth factor (IGF-1)", "experiment": "Promoting effect on IGF-1 production after single oral dose (Example 8)", "format": "in vivo", "conditions": "rats", "experimental": "The synthetic peptide No. 1 or No. 2 or water for injection (control) was orally administered as a single dose to male Wistar rats at the age of four weeks by using a gastric tube (n=6 in each group). The dosage of the synthetic peptide No. 1 or No. 2 was 10 mg/kg. The blood was collected from the tail before administration and 30, 45, 60 and 90 minutes after administration, and the serum was separated. At 120 minutes after administration, the whole blood was collected from the abdominal vena cava under anesthesia and the rats were euthanized (see FIG. 25). The concentration of IGF-1 in the serum was measured by ELISA (Mouse/Rat IGF-I Quantikine ELISA Kit (MG100), R&D Systems, Inc.).\n(§1) The concentration dependence of the synthetic peptides was examined. The synthetic peptide No. 1 was orally administered as a single dose of 1, 5 or 10 mg/kg (n=6 in each group). At 60 minutes after administration, the rats were euthanized under anesthesia, and the liver was harvested. The concentration of IGF-1 in the serum and liver was measured. For the serum IGF-1 concentration, the difference (Δ value) before and after administration was also determined.\nas §1, with “The” for “The concentration dependence of the synthetic peptides was examined. The”, “No. 2” for “No. 1”, “administered to the rats” for “administered”, “of 0.1, 1” for “of 1, 5”, “At 45” for “At 60”"}, "male Crlj:WI rats [4]": {"tested_on": "male Crlj:WI rats", "experiment": "Bone growth-promoting effect on rats in the growth phase, seven days (Example 3)", "format": "in vivo", "experimental": "The synthetic peptide No. 1 or water for injection (control) was administered to male Crlj:WI rats at the age of four weeks by oral gavage using a gastric tube once a day for seven days (n=10 in each group). The dosage of the synthetic peptide was 1, 10 or 100 mg/kg/day. As a positive control, human growth hormone (hGH) (Norditropin, Japan Standard Commodity Classification Number: 872412) was subcutaneously administered at 500 μg/kg/day once a day for seven days. As fluorescent labels for the bone formation site, tetracycline (20 mg/kg) was subcutaneously administered on day 4 after the administration of the peptide or controls, and then calcein (10 mg/kg) was subcutaneously administered on day 6 after the administration of the peptide or controls. After the administration of the sample on day 7, the rats were kept under fasting conditions. Twenty-four hours later, the rats were euthanized by bloodletting under anesthesia, and the tibia was harvested (see FIG. 7). Undecalcified specimens of the proximal tibia were prepared and photographed under a fluorescent microscope (BX-53, Olympus Corporation), and the bone morphology was measured using a morphometry system (Histometry RT digitizer, System Supply Co., Ltd.). The longitudinal growth rate (Lo.G.R.) of the growth plate per day was determined by measuring the distance between the tetracycline and calcein labels and dividing the distance by the time interval between the administrations of the two fluorescent labels (two days)."}, "male Crlj:WI rats [5]": {"tested_on": "male Crlj:WI rats", "experiment": "Osteogenesis-promoting effect on growth plate and secondary cancellous bone, 21 days (Example 5)", "format": "in vivo", "experimental": "The synthetic peptide No. 1 or water for injection (control) was administered to male Crlj:WI rats at the age of four weeks by oral gavage using a gastric tube once a day for 21 days. The dosage of the synthetic peptide was 100 mg/kg/day. As a positive control, human growth hormone (hGH) was subcutaneously administered at 500 μg/kg/day once a day for 21 days. As fluorescent labels for the bone formation site, tetracycline (20 mg/kg) was subcutaneously administered on day 18 after the administration of the peptide or controls, and then calcein (10 mg/kg) was subcutaneously administered on day 20 after the administration of the peptide or controls. After the administration of the sample on day 21, the rats were kept under fasting conditions. Twenty-four hours later, the rats were euthanized by bloodletting under anesthesia, and the tibia was harvested (see FIG. 13). Undecalcified specimens of the proximal tibia were prepared and photographed under a fluorescent microscope (BX-53, Olympus Corporation), and the bone morphology was measured using a morphometry system (Histometry RT digitizer, System Supply Co., Ltd.) and an analysis software (CSS-840 cancellous bone morphometry version, System Supply Co., Ltd.). The longitudinal growth rate (Lo.G.R.) of the epiphyseal plate per day was determined by measuring the distance between the tetracycline and calcein labels and dividing the distance by the time interval between the administrations of the two fluorescent labels (two days)."}, "[6]": {"tested_on": "mouse chondrogenic cell line ATDC5", "experiment": "Proliferation-promoting activity on chondrogenic cells (BrdU uptake)", "format": "cell-based", "conditions": "ATDC5, 24 hours, relative to absence of sample = 100, FIGS. 5 and 6", "experimental": "The mouse chondrogenic cell line ATDC5 (RCB0565) was cultured in DMEM/F-12 medium supplemented with 5% FBS, 3×10-8 M sodium selenite and 5 μg/mL human transferrin at 37° C. in 5% CO2-95% air to subconfluence. The cells were collected by trypsinization. The collected cells were suspended at 5×10^4 cells/mL in fresh DMEM/F-12 medium with the same supplements. One hundred microliters of the cell suspension was seeded in each well of a 96-well plate, and precultured at 37° C. in 5% CO2-95% air. On the next day, the medium was replaced with DMEM/F-12 medium containing the sample dissolved therein with a supplement of 3×10^−8 M sodium selenite and 5 μg/mL human transferrin. The cells were further cultured for 24 hours. The proliferative activity of the chondrogenic cells was assessed by measuring the amount of BrdU uptake. The proliferation-promoting activity of the sample on the chondrogenic cells was expressed as a value relative to the proliferation level of the cells in the absence of the sample, which was taken as 100."}, "[7]": {"tested_on": "mouse osteoblast-like cell line MC3T3-E1 Subclone-4", "experiment": "Proliferation-promoting activity on osteoblastic precursor cells (BrdU uptake)", "format": "cell-based", "conditions": "MC3T3-E1, 24 hours, relative to absence of sample = 100, FIGS. 3 and 4", "experimental": "The mouse osteoblast-like cell line MC3T3-E1 Subclone-4 (ATCC No. CRL-2593) was cultured in α-MEM medium supplemented with 10% FBS at 37° C. in 5% CO2-95% air to subconfluence. The cells were collected by trypsinization. The collected cells were suspended at 5×10^4 cells/mL in fresh α-MEM medium with the same supplement. One hundred microliters of the cell suspension was seeded in each well of a 96-well plate, and precultured at 37° C. in 5% CO2-95% air. On the next day, the medium was replaced with α-MEM medium containing the sample dissolved therein with a supplement of 0.1% FBS. The cells were further cultured for 24 hours. The proliferative activity of the osteoblastic precursor cells was assessed by measuring the amount of BrdU uptake. The proliferation-promoting activity of the sample on the osteoblastic precursor cells was expressed as a value relative to the proliferation level of the cells in the absence of the sample, which was taken as 100."}, "[8]": {"tested_on": "insulin-like growth factor (IGF-1)", "experiment": "Serum IGF-1 by ELISA after seven-day administration (Example 3)", "format": "in vivo", "conditions": "rats, seven days oral, 1 and 10 mg/kg/day, 24 hours fasting; versus control group; FIG. 10"}, "male Crlj:WI rats [9]": {"tested_on": "male Crlj:WI rats", "experiment": "Calcification rate and morphometry in secondary cancellous bone, seven days (Example 6)", "format": "in vivo", "experimental": "The synthetic peptide No. 1 or water for injection (control) was administered to male Crlj:WI rats at the age of four weeks by oral gavage using a gastric tube once a day for seven days (n=10 in each group). The dosage of the synthetic peptide was 1, 10 or 100 mg/kg/day. As a positive control, human growth hormone (hGH) (Norditropin, Japan Standard Commodity Classification Number: 872412) was subcutaneously administered at 500 μg/kg/day once a day for seven days. As fluorescent labels for the bone formation site, tetracycline (20 mg/kg) was subcutaneously administered on day 4 after the administration of the peptide or controls, and then calcein (10 mg/kg) was subcutaneously administered on day 6 after the administration of the peptide or controls. After the administration of the sample on day 7, the rats were kept under fasting conditions. Twenty-four hours later, the rats were euthanized by bloodletting under anesthesia, and the tibia was harvested (see FIG. 7). Undecalcified specimens of the proximal tibia were prepared and photographed under a fluorescent microscope (BX-53, Olympus Corporation), and the bone morphology was measured using a morphometry system (Histometry RT digitizer, System Supply Co., Ltd.). The daily calcification rate (mineral apposition rate) was determined by measuring the distance between the tetracycline and calcein labels in the secondary cancellous bones and dividing the distance by the time interval between the administrations of the two fluorescent labels (two days)."}}, "note": "At least one peptide structure holds a part that was inferred or is arguable (an end, a ring closure or a residue). No end group written: not given here.", "data": [{"sequence": "VNPESEEE [synthetic peptide No. 1, Val-Asn-Pro-Glu-Ser-Glu-Glu-Glu]", "values": [{"measurement": "fluorescent labels incorporated into the primary cancellous bone", "setting": "male Crlj:WI rats [1]", "value": "more highly detected"}, {"measurement": "serum PTH concentration", "setting": "[2]", "value": "No significant difference"}, {"measurement": "concentration of IGF-1 in the serum (time course)", "setting": "[3]; single oral dose 10 mg/kg, at 45, 60 and 90 minutes after administration, versus control, FIG. 26", "value": "significantly higher"}, {"measurement": "dose dependence of IGF-1 concentration in the serum and liver", "setting": "[3]; single oral dose 1, 5 or 10 mg/kg, 60 minutes", "value": "increased in a dose-dependent manner"}, {"measurement": "concentration of IGF-1 in the serum", "setting": "[3]; single oral dose 1, 5 or 10 mg/kg, 60 minutes after administration, versus control group, FIG. 28", "value": "significantly higher"}, {"measurement": "concentration of IGF-1 in the liver", "setting": "[3]; single oral dose 1, 5 or 10 mg/kg, 60 minutes after administration, versus control group, FIG. 29", "value": "significantly higher"}, {"measurement": "dose dependence of the bone growth-promoting effect", "setting": "male Crlj:WI rats [4]; seven days, 1, 10 or 100 mg/kg/day oral, FIG. 8", "value": "increased in a dose-dependent manner"}, {"measurement": "area of the hypertrophic cartilage layer", "setting": "male Crlj:WI rats [4]; seven days, peptide 10 mg/kg/day oral, hGH 500 μg/kg/day subcutaneous, versus control group, FIG. 9", "value": "significantly larger"}, {"measurement": "longitudinal growth rate (Lo.G.R.) of the growth plate per day", "setting": "male Crlj:WI rats [4]; seven days, peptide 1, 10 or 100 mg/kg/day oral, hGH 500 μg/kg/day subcutaneous, versus control group, FIG. 8", "value": "significant promotion of bone growth"}, {"measurement": "percentage of the bone surface occupied by osteoblasts (Ob.S/BS)", "setting": "male Crlj:WI rats [5]; 100 mg/kg/day oral, FIG. 16", "value": "higher percentage"}, {"measurement": "percentage of the bone surface occupied by osteoclasts (Oc.S/BS)", "setting": "male Crlj:WI rats [5]; 100 mg/kg/day oral, FIG. 17", "value": "lower percentage"}, {"measurement": "secondary cancellous bone volume (bone volume/tissue volume (BV/TV))", "setting": "male Crlj:WI rats [5]; 100 mg/kg/day oral, versus control group and hGH administration group, FIG. 15", "value": "higher secondary cancellous bone volume"}, {"measurement": "bone growth-promoting effect (Lo.G.R.) compared with hGH", "setting": "male Crlj:WI rats [5]; 100 mg/kg/day oral, versus hGH administration group, FIG. 14", "value": "significantly higher than that in the hGH administration group"}, {"measurement": "longitudinal growth rate (Lo.G.R.) of the epiphyseal plate per day", "setting": "male Crlj:WI rats [5]; peptide 100 mg/kg/day oral, hGH 500 μg/kg/day subcutaneous, versus control group, FIG. 14", "value": "significant promotion of bone growth"}, {"measurement": "proliferation-promoting activity on chondrogenic cells", "setting": "[6]", "value": "promoted the proliferation"}, {"measurement": "proliferation-promoting activity on osteoblastic precursor cells", "setting": "[7]", "value": "promoted the proliferation"}, {"measurement": "concentration of IGF-1 in the serum", "setting": "[8]", "value": "tended to be higher"}, {"measurement": "percentage of the bone surface occupied by osteoblasts (Ob.S/BS)", "setting": "male Crlj:WI rats [9]; seven days oral, FIG. 20", "value": "higher percentage"}, {"measurement": "number of osteoblasts per unit bone surface (N.Ob/TV)", "setting": "male Crlj:WI rats [9]; seven days oral, FIG. 21", "value": "larger number of osteoblasts"}, {"measurement": "secondary cancellous bone volume (bone volume/tissue volume (BV/TV))", "setting": "male Crlj:WI rats [9]; seven days, 10 mg/kg oral, versus hGH administration group, FIG. 19", "value": "higher secondary cancellous bone volume than the hGH administration group"}, {"measurement": "calcification rate (mineral apposition rate) compared with hGH", "setting": "male Crlj:WI rats [9]; seven days, dose of 10 mg/kg/day or more oral, versus hGH administration group, FIG. 18", "value": "significant increase"}, {"measurement": "calcification rate (mineral apposition rate) in the secondary cancellous bone", "setting": "male Crlj:WI rats [9]; seven days, peptide 1, 10 or 100 mg/kg/day oral, hGH 500 μg/kg/day subcutaneous, versus control group, FIG. 18", "value": "significant increase"}]}]}
